At least one structure is not confirmed: it was looked up by name or label, or the drawing left a doubt.
Assays:
[1] = tested on: monocyte chemotactic protein (MCP-1); test: Cytokine levels in vascular tissue after stent delivery; type: in vivo; settings: delivered from a stent
[2] = In vitro release from sirolimus/cilostazol single layer stent coating; type: physicochemical; settings: single-layer sirolimus/cilostazol coating (FIG. 83)
[3] = Drug concentration in liquid formulations (liquid chromatography / HPLC); type: physicochemical
Text: In accordance with exemplary embodiments of the present invention, a series of liquid formulations were developed for the local or regional delivery of water insoluble compounds such as sirolimus and its analogs, including CCI-779, ABT-578 and everolimus, through weeping balloons and catheter injection needles. […] These liquid formulations increase the apparent solubility of the pharmacologically active but water insoluble compounds by two to four orders of magnitude as compared to the solubility limits of the compounds in water. These liquid formulations rely on the use of a very small amount of organic solvents such as Ethanol (typically less than two percent) and a larger amount of safe amphiphilic (of or relating to a molecule having a polar, water soluble group attached to a non-polar, water insoluble […]) excipients such as polyethylene glycol (PEG 200, PEG 400) and vitamin E TPGS to enhance the solubility of the compounds. These liquid formulations of highly water insoluble compounds are stable and readily flowable at room temperature. Certain excipients, such as Vitamin E TPGS and BHT may be utilized to enhance the storage stability of sirolimus compounds through their anti-oxidation properties.
Table 8, shown below, summarizes the concentrations of the excipient, the co-solvents and the drug for four different liquid formulations in accordance with exemplary embodiments of the present invention.
As set forth above, a liquid formulation comprising 4 mg/ml of sirolimus may be achieved utilizing PEG 200 as the excipient and ethanol and water as the co-solvents. […] The high concentration of sirolimus is necessary to maintain an effective and high local concentration of sirolimus after delivery to the site. The liquid formulations are flowable at room temperature and are compatible with a number of delivery devices. […]

porcine model = test: Porcine studies with rapamycin-coated stents; type: in vivo; settings: porcine and rabbit models; nonerodible polymeric stent coating; 35-430 ug/15-18 mm coronary stent; maximal at about 28 to 30 days

## CO[C@H]1C[C@@H]2CC[C@@H](C)[C@@](O)(O2)C(=O)C(=O)N2CCCC[C@H]2C(=O)O[C@H]([C@H](C)C[C@@H]2CC[C@@H](O)[C@H](OC)C2)CC(=O)[C@H](C)/C=C(\C)[C@@H](O)[C@@H](OC)C(=O)[C@H](C)C[C@H](C)/C=C/C=C/C=C/1C [Rapamycin, rapamycin]
[1]
  monocyte chemotactic protein (MCP-1) levels in the vascular wall: highly effective in reducing
[2]
  in vitro release: ~35%
[3]; 4 mg/ml formulation with PEG 200
  dilution with water before sirolimus starts to precipitate out of solution: five to ten
[3]; Vitamin E TPGS excipient, water and ethanol (<2%) co-solvents
  concentration in the final solution (HPLC assay): 15000 µg/mL
[3]; second block of Table 8, EtOH 2.0%, H2O 25%, PEG 200 75%
  Sirolimus conc.: 4 mg/mL
Porcine model
  peak reduction in neointimal hyperplasia: fifty to fifty-five
